Data as given in PubChem BioAssay AID504786 (Drosophila RNAi Screening Center, 2011)

- Assay: 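Knock-downs reducing HIF reporter induction by the iron chelator DFO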 (primary screen)
- Cells: Drosophila S2 cells with a stable HIF luciferase reporter
- Reagent: long dsRNA against Drosophila genes, about 0.2 µg dsRNA per well of a 384-well plate
- Duration: three days of knock-down, then 20 h of DFO before reading
- Treatment: desferrioxamine (DFO) at 100 µM, an iron chelator that mimics hypoxia, for 20 h
- Measured: 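HIF reporter luminescence in cells given 100 µM DFO for 20 h, using the mouse ldh-a hypoxia-response element, scored as per-plate z-scores; higher means greater loss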
- Direction: z-score: higher = stronger loss of HIF reporter signal
The deposit covers about 21,000 reagents; below is an unselected part of those with a known target gene and a result. 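Primary screen; positive scores mean lost reporter signal, so the sign may be inverted from the usual convention.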 A plus sign joins genes that one reagent is predicted to hit. Not all columns of the deposit are shown.

{"predicted target": "me31B", "dsRNA": "DRSC03569", "z-score, replicate 1": -0.4}
{"predicted target": "Nadk2", "dsRNA": "DRSC07072", "z-score, replicate 1": -0.3}
{"predicted target": "ZnT35C", "dsRNA": "DRSC01959", "z-score, replicate 1": -0.3}
{"predicted target": "sro", "dsRNA": "DRSC14469", "z-score, replicate 1": -0.1}
{"predicted target": "RpL5", "dsRNA": "DRSC03801", "z-score, replicate 1": 7.4}
{"predicted target": "Argp", "dsRNA": "DRSC16510", "z-score, replicate 1": -0.4}
{"predicted target": "CG11529", "dsRNA": "DRSC09839", "z-score, replicate 1": -0.3}
{"predicted target": "Su(z)2", "dsRNA": "DRSC07558", "z-score, replicate 1": 2}
{"predicted target": "Ag5r", "dsRNA": "DRSC19327", "z-score, replicate 1": -0.3}

Next part, starting with the last 2 of the part before.
{"predicted target": "Su(z)2", "dsRNA": "DRSC07558", "z-score, replicate 1": 2}
{"predicted target": "Ag5r", "dsRNA": "DRSC19327", "z-score, replicate 1": -0.3}
{"predicted target": "CG13196", "dsRNA": "DRSC06321", "z-score, replicate 1": -0.1}
{"predicted target": "TbCMF46", "dsRNA": "DRSC02221", "z-score, replicate 1": -0.3}
{"predicted target": "CG30325", "dsRNA": "DRSC05685", "z-score, replicate 1": -0.4}
{"predicted target": "CG13144", "dsRNA": "DRSC02241", "z-score, replicate 1": -0.3}
{"predicted target": "gd", "dsRNA": "DRSC20336", "z-score, replicate 1": -0.3}
{"predicted target": "CARPA", "dsRNA": "DRSC17905", "z-score, replicate 1": -0.2}
{"predicted target": "hpRNA:CR32207", "dsRNA": "DRSC09616", "z-score, replicate 1": 0.1}
{"predicted target": "CG42726 + CG42727", "dsRNA": "DRSC14485", "z-score, replicate 1": -0.4}
{"predicted target": "CG15073", "dsRNA": "DRSC06506", "z-score, replicate 1": -0.2}
{"predicted target": "l(3)62Be (retired record)", "dsRNA": "DRSC08231", "z-score, replicate 1": 0.5}
{"predicted target": "CG11369", "dsRNA": "DRSC17779", "z-score, replicate 1": -0.3}
{"predicted target": "Hat1", "dsRNA": "DRSC12298", "z-score, replicate 1": -0.4}
{"predicted target": "MED22", "dsRNA": "DRSC18175", "z-score, replicate 1": 0.1}
{"predicted target": "Agxt", "dsRNA": "DRSC18718", "z-score, replicate 1": -0.3}
{"predicted target": "CG12116", "dsRNA": "DRSC17812", "z-score, replicate 1": -0.3}
{"predicted target": "CG13577", "dsRNA": "DRSC04213", "z-score, replicate 1": -0.2}
{"predicted target": "nsl1", "dsRNA": "DRSC15625", "z-score, replicate 1": 5.6}
{"predicted target": "RpS15", "dsRNA": "DRSC07151", "z-score, replicate 1": 6.9}
